Measurements: PubChem BioAssay AID256 (DTP/NCI, 2004)
The list shows only some results of the screen, not a fair sample: it covers a few groups of compounds. Not every dose and run of a compound is shown. T/C: endpoint of the treated group in % of that of the vehicle group. Some entries give survivors of the animals treated and no T/C: the source holds a T/C of zero for them, seemingly a mark for toxic or unscored doses. Some doses without a T/C left all or most animals alive at the check, yet need not have been tolerated: the source hardly ever lists a survival T/C far under the control, and the zero likely stands for such cases as well. Counts of survivors are from the toxicity check (mostly the fifth day) where no day follows; animals may have died later. Schedule codes are those of the source, read here as Q, the interval in days (D) or hours (H), X, the number of doses. Some doses were run more than once; their values stand side by side, smallest first. Signs of the kind (2×) say how often a value occurs here. For survival time, the PubChem record calls one and a half times the control and up active, and a quarter to a half above the control has no call in these data; cut-offs in other NCI protocols can differ. Some T/C values are marked as having no survivor count here; that says nothing about deaths at the dose. Some T/C values carry the count of animals alive at the toxicity check (mostly the fifth day); without a count or a note in brackets, all were alive then.

Tested on: CD2F1 mice, L1210 leukemia ip, survival T/C
Experiment: NCI In Vivo Anticancer Drug Screen. Data for tumor model L1210 Leukemia (intraperitoneal) in CD2F1 (CDF1) mice
Settings: higher T/C = longer survival
Method in brief: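 Antitumor effect is scored in animals hosting a serially transplanted tumor. Values compare compound-dosed animals against vehicle-only controls as a simple quotient.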

SMILES: NC1CCCCC1.NP(=O)(O)N(CCCl)CCCl
- T/C (T/C endpoint: mean survival time, dose: 25.0 mg/kg/injection, schedule: Q01DX001 (ip), vehicle: DMSO): 116 [survivor count not shown] and 122 % of control [survivor count not shown]
- T/C (T/C endpoint: mean survival time, dose: 25.0 mg/kg/injection, schedule: Q01DX001 (ip), vehicle: other): 106 % of control [survivor count not shown]
- T/C (T/C endpoint: mean survival time, dose: 25.0 mg/kg/injection, schedule: Q01DX001 (ip), vehicle: saline): 113 % of control [survivor count not shown]
- T/C (T/C endpoint: mean survival time, dose: 25.0 mg/kg/injection, schedule: Q01DX001 (ip), vehicle: water): 122 % of control [survivor count not shown]
- T/C (T/C endpoint: mean survival time, dose: 31.25 mg/kg/injection, schedule: Q01DX001 (ip), vehicle: DMSO, evaluated on day 30): 127 and 130 % of control
- T/C (T/C endpoint: mean survival time, dose: 31.25 mg/kg/injection, schedule: Q01DX001 (ip), vehicle: DMSO, evaluated on day 45): 130 % of control
- T/C (T/C endpoint: mean survival time, dose: 31.25 mg/kg/injection, schedule: Q01DX001 (ip), vehicle: DMSO, evaluated on day 60): 118 % of control
- T/C (T/C endpoint: mean survival time, dose: 31.25 mg/kg/injection, schedule: Q01DX001 (ip), vehicle: DMSO, evaluation day not shown): 125 % of control [survivor count not shown]
- T/C (T/C endpoint: mean survival time, dose: 31.25 mg/kg/injection, schedule: Q01DX001 (ip), vehicle: water): 129 % of control
- T/C (T/C endpoint: mean survival time, dose: 50.0 mg/kg/injection, schedule: Q01DX001 (ip), vehicle: DMSO): 128 [survivor count not shown] and 136 % of control [survivor count not shown]
- T/C (T/C endpoint: mean survival time, dose: 50.0 mg/kg/injection, schedule: Q01DX001 (ip), vehicle: other): 117 % of control [survivor count not shown]
- T/C (T/C endpoint: mean survival time, dose: 50.0 mg/kg/injection, schedule: Q01DX001 (ip), vehicle: saline): 134 % of control [survivor count not shown]
- T/C (T/C endpoint: mean survival time, dose: 50.0 mg/kg/injection, schedule: Q01DX001 (ip), vehicle: water): 132 % of control [survivor count not shown]
- T/C (T/C endpoint: mean survival time, dose: 62.5 mg/kg/injection, schedule: Q01DX001 (ip), vehicle: DMSO): 119 % of control
- T/C (T/C endpoint: mean survival time, dose: 62.5 mg/kg/injection, schedule: Q01DX001 (ip), vehicle: water): 121 % of control
- T/C (T/C endpoint: mean survival time, dose: 100.0 mg/kg/injection, schedule: Q01DX001 (ip), vehicle: DMSO): 124 % of control [survivor count not shown]
- T/C (T/C endpoint: mean survival time, dose: 100.0 mg/kg/injection, schedule: Q01DX001 (ip), vehicle: other): 128 % of control [survivor count not shown]
- T/C (T/C endpoint: mean survival time, dose: 100.0 mg/kg/injection, schedule: Q01DX001 (ip), vehicle: water): 135 % of control [survivor count not shown]
- survivor count (T/C endpoint: mean survival time, dose: 250.0 mg/kg/injection, schedule: Q01DX001 (ip), vehicle: DMSO): 4 of 6
- T/C (T/C endpoint: mean survival time, dose: 250.0 mg/kg/injection, schedule: Q01DX001 (ip), vehicle: water): 108 % of control [5 of 6 alive]
- T/C (T/C endpoint: mean survival time, dose: 400.0 mg/kg/injection, schedule: Q01DX001 (ip), vehicle: DMSO): 130 % of control [survivor count not shown]
- T/C (T/C endpoint: mean survival time, dose: 400.0 mg/kg/injection, schedule: Q01DX001 (ip), vehicle: other): 87 % of control [survivor count not shown]
- survivor count (T/C endpoint: mean survival time, dose: 500.0 mg/kg/injection, schedule: Q01DX001 (ip), vehicle: DMSO): 0 of 6, 2 of 6, 5 of 6 (2×)
- survivor count (T/C endpoint: mean survival time, dose: 500.0 mg/kg/injection, schedule: Q01DX001 (ip), vehicle: water): 0 of 6 and 3 of 6 (2×)
- T/C (T/C endpoint: median survival time, dose: 25.0 mg/kg/injection, schedule: Q01DX001 (ip), vehicle: water): 124 % of control
- T/C (T/C endpoint: median survival time, dose: 50.0 mg/kg/injection, schedule: Q01DX001 (ip), vehicle: water): 106 and 123 % of control
- T/C (T/C endpoint: median survival time, dose: 100.0 mg/kg/injection, schedule: Q01DX001 (ip), vehicle: water): 118 and 128 % of control
- T/C (T/C endpoint: median survival time, dose: 200.0 mg/kg/injection, schedule: Q01DX001 (ip), vehicle: water): 126 % of control
- survivor count (T/C endpoint: median survival time, dose: 800.0 mg/kg/injection, schedule: Q01DX001 (ip), vehicle: water): 6 of 6

SMILES: N#Cc1ccc(N(CCCl)CCCl)cc1
- T/C (T/C endpoint: mean survival time, dose: 6.25 mg/kg/injection, schedule: Q01DX009 (ip), vehicle: Klucel (hydroxypropylcellulose) (HPC)): 101 % of control [survivor count not shown]
- T/C (T/C endpoint: mean survival time, dose: 12.5 mg/kg/injection, schedule: Q01DX009 (ip), vehicle: Klucel (hydroxypropylcellulose) (HPC)): 103 % of control [survivor count not shown]
- T/C (T/C endpoint: mean survival time, dose: 25.0 mg/kg/injection, schedule: Q01DX009 (ip), vehicle: Klucel (hydroxypropylcellulose) (HPC)): 100 [survivor count not shown] and 106 % of control [survivor count not shown]
- T/C (T/C endpoint: mean survival time, dose: 50.0 mg/kg/injection, schedule: Q01DX009 (ip), vehicle: Klucel (hydroxypropylcellulose) (HPC)): 92 [survivor count not shown] and 97 % of control [survivor count not shown]
- T/C (T/C endpoint: mean survival time, dose: 100.0 mg/kg/injection, schedule: Q01DX009 (ip), vehicle: Klucel (hydroxypropylcellulose) (HPC)): 94 [survivor count not shown] and 95 % of control [survivor count not shown]
- T/C (T/C endpoint: mean survival time, dose: 200.0 mg/kg/injection, schedule: Q01DX009 (ip), vehicle: Klucel (hydroxypropylcellulose) (HPC)): 90 [survivor count not shown] and 94 % of control [survivor count not shown]
- T/C (T/C endpoint: mean survival time, dose: 400.0 mg/kg/injection, schedule: Q01DX009 (ip), vehicle: Klucel (hydroxypropylcellulose) (HPC)): 91 % of control [survivor count not shown]
